According to publication PMC3419070, “Identification of novel mitosis regulators through data mining with human centromere/kinetochore proteins as group queries” (BMC Cell Biology, 2012):
Results are given in words; binding and its absence hold for the method and conditions named. Binding seen in cells or lysates may run through a third protein. Some results given as binding are weak or reduced against the parent protein; the word gives no strength. Sequences can lack the tags named with a protein.

Molecular target: T1, GST-p31^comet (expressed in HEK293 cells) (human) (UniProt Q15013)
T1 sequence: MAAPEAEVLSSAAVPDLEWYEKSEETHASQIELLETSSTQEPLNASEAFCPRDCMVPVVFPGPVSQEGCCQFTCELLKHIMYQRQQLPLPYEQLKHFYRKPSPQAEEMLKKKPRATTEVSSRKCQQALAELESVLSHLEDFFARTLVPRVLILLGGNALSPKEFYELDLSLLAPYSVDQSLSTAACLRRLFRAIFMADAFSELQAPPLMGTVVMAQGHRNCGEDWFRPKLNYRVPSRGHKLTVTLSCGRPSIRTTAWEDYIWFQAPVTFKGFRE
Experiment: pull-down; GST-pulldown from lysates of asynchronous HEK293 cells expressing GST-p31^comet alone or together with GFP-TRIP13; blots with anti-GST and anti-GFP antibodies; untransfected lysates as controls

B1: GFP-TRIP13 (protein, UniProt Q15645 1-432)
chain: MDEAVGDLKQALPCVAESPTVHVEVHQRGSSTAKKEDINLSVRKLLNRHNIVFGDYTWTEFDEPFLTRNVQSVSIIDTELKVKDSQPIDLSACTVALHIFQLNEDGPSSENLEEETENIIAANHWVLPAAEFHGLWDSLVYDVEVKSHLLDYVMTTLLFSDKNVNSNLITWNRVVLLHGPPGTGKTSLCKALAQKLTIRLSSRYRYGQLIEINSHSLFSKWFSESGKLVTKMFQKIQDLIDDKDALVFVLIDEVESLTAARNACRAGTEPSDAIRVVNAVLTQIDQIKRHSNVVILTTSNITEKIDVAFVDRADIKQYIGPPSAAAIFKIYLSCLEELMKCQIIYPRQQLLTLRELEMIGFIENNVSKLSLLLNDISRKSEGLSGRVLRKLPFLAHALYVQAPTVTIEGFLQALSLAVDKQFEERKKLAAYI
For B1, the binding was “binds”.
